Among the data in PMC9271825 are binding values, retold here.

Substitutions are numbered along the chain they refer to. Numbers in names are those of the source. These are yes or no findings as the source states them, for the method shown. Some entries that bind do so weakly or less than the wild type. For some assays here: Sequences can lack the tags named with a protein.

Assay [1] concerns the target T1, Human Claudin-7 (Cldn7), wild type, His-tagged (human), O95471.
T1 chain: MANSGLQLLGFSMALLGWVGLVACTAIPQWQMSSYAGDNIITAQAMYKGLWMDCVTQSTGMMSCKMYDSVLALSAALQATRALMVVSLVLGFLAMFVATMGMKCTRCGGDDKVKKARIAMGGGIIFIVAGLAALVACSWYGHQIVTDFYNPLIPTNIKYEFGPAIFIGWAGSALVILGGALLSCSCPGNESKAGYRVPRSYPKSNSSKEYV
Nature of the assay: FRET between lipid-labelled proteoliposomes (membrane tethering); proteoliposomes with NBD-PE mixed with proteoliposomes with Liss-Rhod-PE, RT, samples over time; ratiometric FRET efficiency against liposomes without protein; both purified. Particulars: remark: other sources report otherwise.

Assay [2] has as its target T1, Human Claudin-7 (Cldn7), wild type, …. Nature of the assay: precipitation at low NaCl (dialysis, centrifugation, SDS-PAGE densitometry); ~4 µM purified protein in DDM dialyzed against p-buffer with 0-300 mM NaCl, 20,000 g 1 min at RT; monomer band of supernatant and pellet quantified; wt and mutants compared at 0 and 300 mM NaCl; both purified. Particulars: remark: other sources report otherwise.

For assay [3] the target is unchanged. Nature of the assay: atomic force microscopy of proteoliposomes (membrane stacks); purified protein reconstituted 1:400 into DOPC liposomes, spread on mica (p-buffer + 50 mM Mg2+), imaged in p-buffer; membrane stacks of multiples of 5 nm read as trans-interaction; also at different NaCl concentrations; both purified. Particulars: remark: other sources report otherwise.

Assay [4] has as its target Cldn7* (V70A, R81A, F148A, Y149A, E160A and F161A) (human) (UniProt O95471). Nature of the assay: FRET between lipid-labelled proteoliposomes (membrane tethering); proteoliposomes with NBD-PE mixed with proteoliposomes with Liss-Rhod-PE, RT, samples over time; ratiometric FRET efficiency against liposomes without protein; both purified.
Assay [5] has the same target. Nature of the assay: atomic force microscopy of proteoliposomes (membrane stacks); purified protein reconstituted 1:400 into DOPC liposomes, spread on mica (p-buffer + 50 mM Mg2+), imaged in p-buffer; membrane stacks of multiples of 5 nm read as trans-interaction; also at different NaCl concentrations; both purified.

B1: Human Claudin-7 (Cldn7), wild type, His-tagged, O95471 1-211 (natural protein)
chain: T1 chain
Take B1: the binding result in assay [1], in assay [2] and in assay [3] was “binds” in each case.

B2: Cldn7* (V70A, R81A, F148A, Y149A, E160A and F161A) (protein, UniProt O95471 1-211)
chain: T1 chain with V70A, R81A, F148A, Y149A, E160A, F161A
Consider B2, for which the binding entry in assay [4] and in assay [5] was “binds” throughout.
